Non-standard residues stand in square brackets, D forms with d. Residues, ends and D or L forms follow the SMILES beside them. *: point of attachment. NOTA = O=C(O)CN1CCN(CC(=O)O)CCN(CC(=O)*)CC1
Assays:
[1] = Zeta potential of CAP-liposome mixtures; conditions: for Affinity for negatively charged phospholipids (regions containing PS): from zeta potential and CD spectra, neutral solution; for Change of zeta potential of liposomes on addition of CAPs: 0, 10 or 20 µM, 1 h, 37 °C, 10 mM HEPES pH 7.4, n = 3
[2] = CD spectroscopy of CAP-liposome mixture; conditions: 150 μM; for Secondary structure by CD in buffer alone: 50 mM BTP, 150 mM NaF, pH 7.4, 37 °C; for CD spectrum with negatively charged DOPC/DOPS (1:1) vesicles: pH 7.4 buffer

| SMILES | Affinity for negatively charged phospholipids (regions containing PS) [1] | Secondary structure by CD in buffer alone [2] | CD spectrum with negatively charged DOPC/DOPS (1:1) vesicles [2] | Change of zeta potential of liposomes on addition of CAPs [1] |
| --- | --- | --- | --- | --- |
| CC(C)[C@H](NC(=O)[C@H](Cc1c[nH]cn1)NC(=O)[C@@H](NC(=O)[C@H](Cc1c[nH]cn1)NC(=O)[C@@H](NC(=O)[C@H](Cc1c[nH]cn1)NC(=O)[C@@H](NC(=O)[C@@H]1CCCN1C(=O)[C@H]1CCCN1C(=O)[C@@H](NC(=O)[C@H](Cc1c[nH]cn1)NC(=O)[C@@H](NC(=O)[C@H](Cc1c[nH]cn1)NC(=O)[C@@H](NC(=O)[C@H](Cc1c[nH]cn1)NC(=O)[C@@H](NC(=O)[C@H](Cc1c[nH]cn1)NC(=O)CN1CCN(CC(=O)O)CCN(CC(=O)O)CC1)C(C)C)C(C)C)C(C)C)C(C)C)[C@@H](C)O)C(C)C)C(C)C)C(=O)N[C@@H](Cc1c[nH]cn1)C(N)=O [NOTA-HV6] ({NOTA}-HVHVHVHV[dP]PTHVHVHVH-NH2) | lower binding affinity | mixture of random coils and β-sheets | did not significantly change |  |
| CC(C)[C@H](NC(=O)[C@H](CCCCN)NC(=O)[C@@H](NC(=O)[C@H](CCCCN)NC(=O)[C@@H](NC(=O)[C@H](CCCCN)NC(=O)[C@@H](NC(=O)[C@@H]1CCCN1C(=O)[C@H]1CCCN1C(=O)[C@@H](NC(=O)[C@H](CCCCN)NC(=O)[C@@H](NC(=O)[C@H](CCCCN)NC(=O)[C@@H](NC(=O)[C@H](CCCCN)NC(=O)[C@@H](NC(=O)[C@H](CCCCN)NC(=O)CN1CCN(CC(=O)O)CCN(CC(=O)O)CC1)C(C)C)C(C)C)C(C)C)C(C)C)[C@@H](C)O)C(C)C)C(C)C)C(=O)N[C@@H](CCCCN)C(N)=O [NOTA-KV6] ({NOTA}-KVKVKVKV[dP]PTKVKVKVK-NH2) | high affinity | random coils | characteristic of the β-sheet | dose-dependent increases |
| CC(C)[C@H](NC(=O)[C@H](CCCNC(=N)N)NC(=O)[C@@H](NC(=O)[C@H](CCCNC(=N)N)NC(=O)[C@@H](NC(=O)[C@H](CCCNC(=N)N)NC(=O)[C@@H](NC(=O)[C@@H]1CCCN1C(=O)[C@H]1CCCN1C(=O)[C@@H](NC(=O)[C@H](CCCNC(=N)N)NC(=O)[C@@H](NC(=O)[C@H](CCCNC(=N)N)NC(=O)[C@@H](NC(=O)[C@H](CCCNC(=N)N)NC(=O)[C@@H](NC(=O)[C@H](CCCNC(=N)N)NC(=O)CN1CCN(CC(=O)O)CCN(CC(=O)O)CC1)C(C)C)C(C)C)C(C)C)C(C)C)[C@@H](C)O)C(C)C)C(C)C)C(=O)N[C@@H](CCCNC(=N)N)C(N)=O [NOTA-RV6] ({NOTA}-RVRVRVRV[dP]PTRVRVRVR-NH2) | high affinity | random coils | characteristic of the β-sheet | dose-dependent increases |

Source: article PMC8155856, “Synthesis and Characterization of Radiogallium-Labeled Cationic Amphiphilic Peptides as Tumor Imaging Agents” (Cancers, 2021)
